Test results taken from paper PMC12705663.
No constants are given. Whether binding was seen depends on the method and setting. Binding seen in cells or lysates may run through a third protein. Some entries that bind do so weakly or less than the wild type.

The chains behind the UniProt entries cited, without tags or fusion partners. Where a name states a change or a piece, a line headed by the entry shows the natural chain unless it says otherwise. A line that says so, or that is headed by a name, gives the form on record, which may keep a tag or linker.
FGFR1 N546K/R661P-BirA*-Flag (P11362, form named): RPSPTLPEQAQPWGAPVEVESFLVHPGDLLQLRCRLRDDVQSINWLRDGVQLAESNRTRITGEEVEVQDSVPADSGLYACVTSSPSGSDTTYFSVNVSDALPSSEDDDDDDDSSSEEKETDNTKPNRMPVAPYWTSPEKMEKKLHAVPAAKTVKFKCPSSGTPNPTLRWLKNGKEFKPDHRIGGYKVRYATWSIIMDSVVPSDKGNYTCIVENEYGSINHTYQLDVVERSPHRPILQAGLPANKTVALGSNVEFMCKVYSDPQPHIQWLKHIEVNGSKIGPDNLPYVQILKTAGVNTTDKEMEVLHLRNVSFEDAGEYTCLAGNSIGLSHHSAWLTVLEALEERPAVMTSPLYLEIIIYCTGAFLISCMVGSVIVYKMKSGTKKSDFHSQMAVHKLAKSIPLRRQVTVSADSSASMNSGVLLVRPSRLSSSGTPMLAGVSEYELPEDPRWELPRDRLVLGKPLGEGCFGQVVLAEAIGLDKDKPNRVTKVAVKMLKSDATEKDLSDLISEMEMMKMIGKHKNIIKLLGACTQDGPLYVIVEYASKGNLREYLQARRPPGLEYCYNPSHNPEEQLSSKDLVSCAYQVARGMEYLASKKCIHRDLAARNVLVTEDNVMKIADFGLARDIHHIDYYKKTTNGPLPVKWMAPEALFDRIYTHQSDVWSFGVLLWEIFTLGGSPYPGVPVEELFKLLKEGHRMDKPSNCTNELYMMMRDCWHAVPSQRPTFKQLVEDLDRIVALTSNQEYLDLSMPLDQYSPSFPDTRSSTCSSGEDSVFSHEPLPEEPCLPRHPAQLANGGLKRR
FGFR1 N546K-BirA*-Flag (P11362, form named): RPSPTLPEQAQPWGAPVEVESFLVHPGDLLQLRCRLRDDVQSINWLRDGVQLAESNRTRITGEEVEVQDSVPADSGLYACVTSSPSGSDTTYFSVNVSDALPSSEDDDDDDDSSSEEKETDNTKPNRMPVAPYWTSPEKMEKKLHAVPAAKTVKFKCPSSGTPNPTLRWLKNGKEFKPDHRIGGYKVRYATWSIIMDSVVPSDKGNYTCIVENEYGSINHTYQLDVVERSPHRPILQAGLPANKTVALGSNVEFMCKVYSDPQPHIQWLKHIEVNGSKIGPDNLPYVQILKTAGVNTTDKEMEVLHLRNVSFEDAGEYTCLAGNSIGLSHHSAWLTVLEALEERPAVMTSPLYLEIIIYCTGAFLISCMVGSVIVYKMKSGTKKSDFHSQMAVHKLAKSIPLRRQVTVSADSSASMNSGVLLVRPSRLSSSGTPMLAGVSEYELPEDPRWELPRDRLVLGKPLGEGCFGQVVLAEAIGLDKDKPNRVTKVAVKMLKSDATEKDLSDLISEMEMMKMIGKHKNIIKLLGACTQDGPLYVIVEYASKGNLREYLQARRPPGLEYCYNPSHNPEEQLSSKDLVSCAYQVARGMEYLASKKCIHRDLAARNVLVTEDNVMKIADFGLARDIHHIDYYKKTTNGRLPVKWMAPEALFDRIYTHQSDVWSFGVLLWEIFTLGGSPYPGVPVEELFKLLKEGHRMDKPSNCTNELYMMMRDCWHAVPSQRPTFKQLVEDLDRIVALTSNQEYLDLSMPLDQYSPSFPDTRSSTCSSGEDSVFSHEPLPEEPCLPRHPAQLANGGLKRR

How the values were obtained:
[1] = biological target: FGFR1 N546K/R661P-BirA*-Flag (human) (UniProt P11362); experiment: co-IP; anti-FLAG antibody on Protein G Mag Sepharose beads, lysates of T-REx HEK293 stable cell lines (IP lysis buffer with 1% NP-40, 150 mM NaCl), overnight at 4 °C; blots for total and phosphorylated FGFR1 and PLCγ
[2] = biological target: FGFR1 N546K-BirA*-Flag (human) (UniProt P11362); experiment: as above

binding [1]: binds
binding [2]: binds
B1: phospholipase C gamma 1 (enzyme, UniProt P19174 1-1290)
chain: MAGAASPCANGCGPGAPSDAEVLHLCRSLEVGTVMTLFYSKKSQRPERKTFQVKLETRQITWSRGADKIEGAIDIREIKEIRPGKTSRDFDRYQEDPAFRPDQSHCFVILYGMEFRLKTLSLQATSEDEVNMWIKGLTWLMEDTLQAPTPLQIERWLRKQFYSVDRNREDRISAKDLKNMLSQVNYRVPNMRFLRERLTDLEQRSGDITYGQFAQLYRSLMYSAQKTMDLPFLEASTLRAGERPELCRVSLPEFQQFLLDYQGELWAVDRLQVQEFMLSFLRDPLREIEEPYFFLDEFVTFLFSKENSVWNSQLDAVCPDTMNNPLSHYWISSSHNTYLTGDQFSSESSLEAYARCLRMGCRCIELDCWDGPDGMPVIYHGHTLTTKIKFSDVLHTIKEHAFVASEYPVILSIEDHCSIAQQRNMAQYFKKVLGDTLLTKPVEISADGLPSPNQLKRKILIKHKKLAEGSAYEEVPTSMMYSENDISNSIKNGILYLEDPVNHEWYPHYFVLTSSKIYYSEETSSDQGNEDEEEPKEVSSSTELHSNEKWFHGKLGAGRDGRHIAERLLTEYCIETGAPDGSFLVRESETFVGDYTLSFWRNGKVQHCRIHSRQDAGTPKFFLTDNLVFDSLYDLITHYQQVPLRCNEFEMRLSEPVPQTNAHESKEWYHASLTRAQAEHMLMRVPRDGAFLVRKRNEPNSYAISFRAEGKIKHCRVQQEGQTVMLGNSEFDSLVDLISYYEKHPLYRKMKLRYPINEEALEKIGTAEPDYGALYEGRNPGFYVEANPMPTFKCAVKALFDYKAQREDELTFIKSAIIQNVEKQEGGWWRGDYGGKKQLWFPSNYVEEMVNPVALEPEREHLDENSPLGDLLRGVLDVPACQIAIRPEGKNNRLFVFSISMASVAHWSLDVAADSQEELQDWVKKIREVAQTADARLTEGKIMERRKKIALELSELVVYCRPVPFDEEKIGTERACYRDMSSFPETKAEKYVNKAKGKKFLQYNRLQLSRIYPKGQRLDSSNYDPLPMWICGSQLVALNFQTPDKPMQMNQALFMTGRHCGYVLQPSTMRDEAFDPFDKSSLRGLEPCAISIEVLGARHLPKNGRGIVCPFVEIEVAGAEYDSTKQKTEFVVDNGLNPVWPAKPFHFQISNPEFAFLRFVVYEEDMFSDQNFLAQATFPVKGLKTGYRAVPLKNNYSEDLELASLLIKIDIFPAKENGDLSPFSGTSLRERGSDASGQLFHGRAREGSFESRYQQPFEDFRISQEHLADHFDSRERRAPRRTRVNGDNRL
